PubChem BioAssay AID504764 – Drosophila RNAi Screening Center – 2011

Test: 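Genome-wide screen for regulators of Notch-driven gene expression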 (primary screen)
System: Drosophila Kc167 cells
Knock-down reagent: long dsRNA against Drosophila genes
Duration: about 5 days (4 days dsRNA, then 24 h after transfection)
Conditions: transfection of constitutively active membrane-tethered Notch lacking the extracellular domain, read 24 h later
Measurement: 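Firefly luciferase from an E(spl)m3 reporter with active Notch, plus control-promoter and uninduced reporter wells for normalisation; unnormalised counts, duplicate wells a and b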
Reading the numbers: induced reporter light, run 1, well a and induced reporter light, run 1, well b: higher = more light from the Notch target reporter with active Notch; control promoter light, run 1, well a and control promoter light, run 1, well b: higher = more light from the viral control promoter (cell number, transfection, viability); uninduced reporter light, run 1, well a: higher = more light from the Notch target reporter without active Notch
Rule for the call: 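Hit if the duplicate-averaged log2 ratio of induced to control-promoter light gives a plate-wise z beyond ±2, or induced to uninduced beyond ±1.8; weak-control or discordant-duplicate wells dropped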
Meaning of the calls: active = modifier hit (raised or lowered Notch signal); inactive = not a hit
The screen tested about 22,000 reagents; shown is a random part of those with a known target gene and a result. Over the whole deposit, 403 (1.9%) are marked active. 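Unnormalised raw counts per well; ratio z-scores behind the hit calls and whether each hit raises or lowers signal are not deposited.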 Unmarked entries are inactive. A plus sign joins genes that one reagent is predicted to hit. Not stated in the record: the amount of reagent.

With knock-down of CG7179 [DRSC03020] the results were induced reporter light, run 1, well a = 77325; induced reporter light, run 1, well b = 80685; control promoter light, run 1, well a = 69940; control promoter light, run 1, well b = 82395; uninduced reporter light, run 1, well a = 17165.
Srx [DRSC20005] gave induced reporter light, run 1, well a = 59920; induced reporter light, run 1, well b = 71105; control promoter light, run 1, well a = 73840; control promoter light, run 1, well b = 61890; uninduced reporter light, run 1, well a = 9740.
For acj6 [DRSC20304], the values are induced reporter light, run 1, well a = 2.10e5; induced reporter light, run 1, well b = 1.93e5; control promoter light, run 1, well a = 2.49e5; control promoter light, run 1, well b = 2.44e5; uninduced reporter light, run 1, well a = 14270.
After knock-down of TwdlU [DRSC12224], the record shows induced reporter light, run 1, well a = 1.78e5; induced reporter light, run 1, well b = 1.80e5; control promoter light, run 1, well a = 1.22e5; control promoter light, run 1, well b = 98275; uninduced reporter light, run 1, well a = 9582.
Silencing of CG4972 [DRSC02798] gave: induced reporter light, run 1, well a = 1.52e5; induced reporter light, run 1, well b = 1.48e5; control promoter light, run 1, well a = 90995; control promoter light, run 1, well b = 1.03e5; uninduced reporter light, run 1, well a = 19040.
After knock-down of RapGAP1 [DRSC02293], the record shows induced reporter light, run 1, well a = 1.82e5; induced reporter light, run 1, well b = 1.76e5; control promoter light, run 1, well a = 2.39e5; control promoter light, run 1, well b = 2.23e5; uninduced reporter light, run 1, well a = 10880.
For RapGAP1 [DRSC02294], the values are induced reporter light, run 1, well a = 1.42e5; induced reporter light, run 1, well b = 1.56e5; control promoter light, run 1, well a = 2.13e5; control promoter light, run 1, well b = 1.69e5; uninduced reporter light, run 1, well a = 10970.
After knock-down of RapGAP1 [DRSC03406] the results were induced reporter light, run 1, well a = 1.84e5; induced reporter light, run 1, well b = 1.70e5; control promoter light, run 1, well a = 1.76e5; control promoter light, run 1, well b = 1.82e5; uninduced reporter light, run 1, well a = 18175.
Against Rheb [DRSC12148] the deposit lists induced reporter light, run 1, well a = 43765; induced reporter light, run 1, well b = 51765; control promoter light, run 1, well a = 29020; control promoter light, run 1, well b = 29165; uninduced reporter light, run 1, well a = 4180.
CG15358 [DRSC00388] gave induced reporter light, run 1, well a = 1.40e5; induced reporter light, run 1, well b = 81155; control promoter light, run 1, well a = 78130; control promoter light, run 1, well b = 54125; uninduced reporter light, run 1, well a = 6955.
With knock-down of CG5509 [DRSC15822], the record shows induced reporter light, run 1, well a = 66240; induced reporter light, run 1, well b = 64550; control promoter light, run 1, well a = 65410; control promoter light, run 1, well b = 66420; uninduced reporter light, run 1, well a = 3795.
For CG42809 + CG42810 [DRSC02532] the deposit lists induced reporter light, run 1, well a = 95500; induced reporter light, run 1, well b = 1.08e5; control promoter light, run 1, well a = 1.42e5; control promoter light, run 1, well b = 1.17e5; uninduced reporter light, run 1, well a = 10155.
Against CG42809 + CG42810 [DRSC02533], the entry reads induced reporter light, run 1, well a = 1.27e5; induced reporter light, run 1, well b = 1.37e5; control promoter light, run 1, well a = 1.53e5; control promoter light, run 1, well b = 1.57e5; uninduced reporter light, run 1, well a = 9985.

Entries above whose target name begins with C or c:
CG7179 [DRSC03020] — induced reporter light, run 1, well a = 77325; induced reporter light, run 1, well b = 80685; control promoter light, run 1, well a = 69940; control promoter light, run 1, well b = 82395; uninduced reporter light, run 1, well a = 17165
CG4972 [DRSC02798] — induced reporter light, run 1, well a = 1.52e5; induced reporter light, run 1, well b = 1.48e5; control promoter light, run 1, well a = 90995; control promoter light, run 1, well b = 1.03e5; uninduced reporter light, run 1, well a = 19040
CG15358 [DRSC00388] — induced reporter light, run 1, well a = 1.40e5; induced reporter light, run 1, well b = 81155; control promoter light, run 1, well a = 78130; control promoter light, run 1, well b = 54125; uninduced reporter light, run 1, well a = 6955
CG5509 [DRSC15822] — induced reporter light, run 1, well a = 66240; induced reporter light, run 1, well b = 64550; control promoter light, run 1, well a = 65410; control promoter light, run 1, well b = 66420; uninduced reporter light, run 1, well a = 3795
CG42809 + CG42810 [DRSC02532] — induced reporter light, run 1, well a = 95500; induced reporter light, run 1, well b = 1.08e5; control promoter light, run 1, well a = 1.42e5; control promoter light, run 1, well b = 1.17e5; uninduced reporter light, run 1, well a = 10155
CG42809 + CG42810 [DRSC02533] — induced reporter light, run 1, well a = 1.27e5; induced reporter light, run 1, well b = 1.37e5; control promoter light, run 1, well a = 1.53e5; control promoter light, run 1, well b = 1.57e5; uninduced reporter light, run 1, well a = 9985

Next records follow.
With knock-down of Rlb1 [DRSC16826], the screen gave induced reporter light, run 1, well a = 96925; induced reporter light, run 1, well b = 77425; control promoter light, run 1, well a = 90495; control promoter light, run 1, well b = 63250; uninduced reporter light, run 1, well a = 5540.
After knock-down of tal-1A + tal-2A + tal-AA + 1 more [DRSC12992], the record shows induced reporter light, run 1, well a = 1.27e5; induced reporter light, run 1, well b = 1.16e5; control promoter light, run 1, well a = 1.22e5; control promoter light, run 1, well b = 1.39e5; uninduced reporter light, run 1, well a = 8850.
After knock-down of CG14471 (retired record) [DRSC04865] the results were induced reporter light, run 1, well a = 1.73e5; induced reporter light, run 1, well b = 1.45e5; control promoter light, run 1, well a = 1.48e5; control promoter light, run 1, well b = 1.56e5; uninduced reporter light, run 1, well a = 12020.
For Pgant2 [DRSC00587], the values are induced reporter light, run 1, well a = 64730; induced reporter light, run 1, well b = 48485; control promoter light, run 1, well a = 69845; control promoter light, run 1, well b = 56105; uninduced reporter light, run 1, well a = 3895.
CG17192 [DRSC15186] scored induced reporter light, run 1, well a = 1.51e5; induced reporter light, run 1, well b = 1.38e5; control promoter light, run 1, well a = 1.99e5; control promoter light, run 1, well b = 1.74e5; uninduced reporter light, run 1, well a = 13100.
With knock-down of CG11404 [DRSC11656] the results were induced reporter light, run 1, well a = 95710; induced reporter light, run 1, well b = 1.26e5; control promoter light, run 1, well a = 1.26e5; control promoter light, run 1, well b = 1.00e5; uninduced reporter light, run 1, well a = 8855.
After knock-down of CG31407 [DRSC12761] the results were induced reporter light, run 1, well a = 1.85e5; induced reporter light, run 1, well b = 1.49e5; control promoter light, run 1, well a = 2.27e5; control promoter light, run 1, well b = 1.81e5; uninduced reporter light, run 1, well a = 12182.
Knock-down of Or19a [DRSC20684] resulted in: induced reporter light, run 1, well a = 91790; induced reporter light, run 1, well b = 83620; control promoter light, run 1, well a = 92890; control promoter light, run 1, well b = 1.00e5; uninduced reporter light, run 1, well a = 10565.
After knock-down of mars [DRSC06656] the results were induced reporter light, run 1, well a = 1.47e5; induced reporter light, run 1, well b = 1.80e5; control promoter light, run 1, well a = 1.48e5; control promoter light, run 1, well b = 1.43e5; uninduced reporter light, run 1, well a = 15170.
Silencing of obst-A [DRSC20543] came out at: induced reporter light, run 1, well a = 1.09e5; induced reporter light, run 1, well b = 1.34e5; control promoter light, run 1, well a = 1.22e5; control promoter light, run 1, well b = 62610; uninduced reporter light, run 1, well a = 10555.
With knock-down of Obp83g [DRSC12269], the record shows induced reporter light, run 1, well a = 1.07e5; induced reporter light, run 1, well b = 82285; control promoter light, run 1, well a = 77230; control promoter light, run 1, well b = 53085; uninduced reporter light, run 1, well a = 6460.
